This passage reports binding results from PMC7955884.

One assay concerns the target LPA1‐GFP (rice). The assay is described as follows: co-IP; DEP1-Myc + LPA1-GFP transfected into tobacco leaves; immunoprecipitated with anti-GFP, detected with anti-Myc.
The next assay deals with LPA1‐nYFP (rice). The assay is described as follows: split reporter; split-GFP: reconstitution of fluorescence from LPA1-nYFP + DEP1-cCFP, in the nucleus.

These are yes or no findings as the source states them, for the method shown. In cells and extracts the contact can be indirect. Binding can be weak; no strength is given. Where a sequence is shown, tags or fusion partners need not be part of it.

B1: DEP1‐Myc (protein, UniProt Q67UU9 1-426)
chain: MGEEAVVMEAPRPKSPPRYPDLCGRRRMQLEVQILSREITFLKDELHFLEGAQPVSRSGCIKEINEFVGTKHDPLIPTKRRRHRSCRLFRWIGSKLCICISCLCYCCKCSPKCKRPRCLNCSCSSCCDEPCCKPNCSACCAGSCCSPDCCSCCKPNCSCCKTPSCCKPNCSCSCPSCSSCCDTSCCKPSCTCFNIFSCFKSLYSCFKIPSCFKSQCNCSSPNCCTCTLPSCSCKGCACPSCGCNGCGCPSCGCNGCGCPSCGCNGCGLPSCGCNGCGSCSCAQCKPDCGSCSTNCCSCKPSCNGCCGEQCCRCADCFSCSCPRCSSCFNIFKCSCAGCCSSLCKCPCTTQCFSCQSSCCKRQPSCCKCQSSCCEGQPSCCEGHCCSLPKPSCPECSCGCVWSCKNCTEGCRCPRCRNPCCLSGCLC
In the case of B1, in the assay with LPA1‐GFP (rice), the binding entry is reported as “binds”.

B2: DEP1‐cCFP (protein, UniProt Q67UU9 1-426)
chain: B1 chain
Take B2: the binding entry with LPA1‐nYFP (rice) is recorded as “binds”.
